The structures given here were assigned with low confidence; some may be wrong.
Target: G9a (Homo sapiens, UniProt Q96KQ7)
Experiment: G9a AlphaLISA enzymatic activity assay
Details: negative log of IC50 in molar, 0.15 nM G9a, 15 uM S-adenosyl-methionine, 100 nM biotinylated histone 3 peptide (1-21)

Sequences of proteins named here, by UniProt entry; tags and fusion partners are left off.
UniProt Q96KQ7, whole entry: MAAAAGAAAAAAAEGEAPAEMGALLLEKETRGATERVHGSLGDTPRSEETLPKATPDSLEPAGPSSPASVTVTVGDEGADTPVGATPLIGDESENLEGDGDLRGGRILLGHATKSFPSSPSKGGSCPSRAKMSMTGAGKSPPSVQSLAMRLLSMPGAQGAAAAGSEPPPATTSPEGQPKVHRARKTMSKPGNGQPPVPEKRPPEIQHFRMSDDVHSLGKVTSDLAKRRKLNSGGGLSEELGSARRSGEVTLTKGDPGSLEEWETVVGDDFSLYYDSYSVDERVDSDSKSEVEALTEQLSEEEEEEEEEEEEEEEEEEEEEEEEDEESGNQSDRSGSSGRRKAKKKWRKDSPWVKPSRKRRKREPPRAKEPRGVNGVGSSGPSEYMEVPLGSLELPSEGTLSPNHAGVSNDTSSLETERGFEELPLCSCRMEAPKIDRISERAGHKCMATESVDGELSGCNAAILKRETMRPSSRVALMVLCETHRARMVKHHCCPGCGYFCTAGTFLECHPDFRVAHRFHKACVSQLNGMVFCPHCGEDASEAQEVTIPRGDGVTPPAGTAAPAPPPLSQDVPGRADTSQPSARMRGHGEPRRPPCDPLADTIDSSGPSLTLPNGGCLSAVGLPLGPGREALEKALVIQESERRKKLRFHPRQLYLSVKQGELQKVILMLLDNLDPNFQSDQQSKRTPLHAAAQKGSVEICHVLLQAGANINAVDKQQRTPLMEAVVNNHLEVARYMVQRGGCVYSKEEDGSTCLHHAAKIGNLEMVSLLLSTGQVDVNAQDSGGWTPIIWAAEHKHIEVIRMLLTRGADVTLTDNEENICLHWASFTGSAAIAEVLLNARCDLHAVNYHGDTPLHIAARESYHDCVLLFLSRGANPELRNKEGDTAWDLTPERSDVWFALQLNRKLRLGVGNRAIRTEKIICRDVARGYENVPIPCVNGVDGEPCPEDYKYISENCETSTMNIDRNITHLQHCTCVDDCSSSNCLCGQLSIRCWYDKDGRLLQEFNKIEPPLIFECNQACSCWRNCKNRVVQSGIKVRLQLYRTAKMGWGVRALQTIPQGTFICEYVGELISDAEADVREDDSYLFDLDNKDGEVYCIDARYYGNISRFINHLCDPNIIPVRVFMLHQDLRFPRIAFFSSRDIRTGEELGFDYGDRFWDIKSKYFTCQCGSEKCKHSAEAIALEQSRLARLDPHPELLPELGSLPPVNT

Structure (SMILES): COc1cc2c(NC3COCCOC3)c3c(nc2cc1OCCCN1CCCC1)CCC3
- pIC50: 8.04
